“And” between values parts separate entries of the source, which are not always exact repeats. Equal entries are not always repeated. Screen size: about 310,000 compounds; about 17,000 (5.5%) were called active. This list was built around the results that the source calls inconclusive (neither active nor inactive); the mix of calls is not that of the screen. The call rests on the fitted dose curve; in most records, active means well fitted inhibition curve with a large enough effect; inconclusive means small, poorly fitted or top-dose-only effect, or effect the other way; inactive means no such curve, though single readings can be large or run the other way. Potencies beside an inconclusive call are fits to weak or partial responses and may not hold up.
The compounds below were run against Nuclear receptor ROR-gamma (Mus musculus) (UniProt P51450) (assay: qHTS for inhibitors of ROR gamma transcriptional activity). Settings: Drosophila S2 Gal4-RORgamma UAS-luciferase reporter, 20 h; activity change, negative = inhibition: at 53.6 µM (top of the series).
Method in brief: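 In this cell-based reporter format, copper sulfate (700 uM final) drives Gal4–ROR gamma fusion expression from a metallothionein promoter in Drosophila Schneider cells; compounds preincubated 1 hr, reporter read after 20 hr at ambient temperature.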
Further: nearly all actives have a fitted effect of over 60% in size.
On the % scale 0 is the no-effect control and ±100 the full control effect; potency means the concentration at half of the fitted maximal effect.

Chains of the proteins cited; added tags and fusions are not shown. Lines headed by an entry give the natural chain unless they say otherwise; changes in a name come on top.
UniProt P51450: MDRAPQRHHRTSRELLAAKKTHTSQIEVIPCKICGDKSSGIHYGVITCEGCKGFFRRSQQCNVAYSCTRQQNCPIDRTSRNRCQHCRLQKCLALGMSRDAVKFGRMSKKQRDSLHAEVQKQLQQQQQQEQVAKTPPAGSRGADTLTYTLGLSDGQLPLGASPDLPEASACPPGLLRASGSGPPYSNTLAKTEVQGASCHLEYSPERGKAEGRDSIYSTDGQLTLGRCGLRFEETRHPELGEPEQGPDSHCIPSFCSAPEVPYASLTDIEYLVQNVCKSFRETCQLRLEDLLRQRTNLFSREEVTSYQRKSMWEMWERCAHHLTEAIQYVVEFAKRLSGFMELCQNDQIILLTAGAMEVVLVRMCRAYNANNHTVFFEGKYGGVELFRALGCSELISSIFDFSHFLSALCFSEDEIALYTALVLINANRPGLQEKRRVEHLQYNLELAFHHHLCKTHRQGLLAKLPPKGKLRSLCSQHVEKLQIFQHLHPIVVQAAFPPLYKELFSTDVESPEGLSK

| SMILES | Potency | activity change, negative = inhibition |
| --- | --- | --- |
| N#CCOc1nc(N2CCCC2)nc(N2CCCC2)n1 | inconclusive: 17.8 µM [activator, single point] | – |
| CCOC(=O)N1CCN(C(=O)CC(C(=O)N2CCc3ccccc32)n2ccnc2)CC1 (stereo unspecified) | inconclusive: 7.08 µM [inhibitor, partial curve, poor fit] | – |
| COc1ccc2cc(-c3cc(C(=O)OCC(=O)NC4CCS(=O)(=O)C4)c4ccccc4n3)ccc2c1 (stereo unspecified) | active: 2.82 µM | – |
| CC(c1ccccc1)c1nnc(NC(=O)Nc2ccccc2)s1 (stereo unspecified) | inconclusive: 10 µM [activator, partial curve] | – |
| c1ccc(Cn2ccc(-c3cnc(-c4ccccc4)s3)n2)cc1 | inconclusive: 0.0891 µM [activator, full curve, poor fit] | – |
| CC1(C)CCN2CCC(C)(C)c3c(O)ccc1c32 | inconclusive: 6.31 µM [inhibitor, single point] | – |
| Cc1ccc(S(=O)(=O)N2CCN=C2SCc2c(F)cccc2Cl)cc1 | inconclusive: 7.08 µM [inhibitor, partial curve] | – |
| Cc1ccccc1OCC(=O)Nc1ccc2[nH]ncc2c1 | – | inactive: 27.2% |
| CCCCn1c(-c2cc(Cl)ccc2OC)n[nH]c1=S | active: 3.16 µM | – |
| CC(C)C(=O)Nc1ccc(-c2nc3ncccc3o2)cc1 | inconclusive: 15.8 µM [inhibitor, single point] | – |
| CCC(C)NCCOc1ccc(Br)cc1 (stereo unspecified) | – | inactive: 2.83% |
| CC(C)(C)NC(=S)NCCc1ccccc1 | active: 6.31 µM | – |
| O=C(c1cc(-c2cccc(O)c2)on1)N1CCCCC1 | active: 0.708 µM | – |
| COC(=O)C(CC(=O)c1ccc(Br)cc1)n1cccn1 (stereo unspecified) | – | inactive: -34.8% |
| COc1ccc(O)c(/C=N/NC(=O)CN2CCS(=O)(=O)CC2)c1 | inconclusive: 12.6 µM [inhibitor, partial curve] | – |
| COc1ccc(NC(=O)CSc2ccc(-c3ccccn3)nn2)cc1OC | inconclusive: 0.631 µM [activator, full curve, poor fit] | – |
| CCN(CC)c1ccc(/C=N/NC(=O)OC(C)(C)C)cc1 | inconclusive: 7.08 µM [activator, full curve, poor fit] | – |
| O=C(CSc1nc2ccsc2c(=O)n1CC1CCC(C(=O)O)CC1)c1ccc(F)cc1 (stereo unspecified) | inconclusive: 25.1 µM [activator, single point] | – |
| Cc1cccc(NC(=O)c2cc(NC(=O)C3CCCCC3C(=O)O)ccc2N2CCCCC2)c1 (stereo unspecified) | inconclusive: 11.2 µM [activator, partial curve] | – |
| COc1cc(SC#N)ccc1N=Cc1c(C)[nH]n(-c2ccc(C)cc2C)c1=O | inconclusive: 12.6 µM [inhibitor, single point] | – |
| COC(=O)c1[nH]c2ccc(C)cc2c1NC(=O)CN1CCc2cc(OC)c(OC)cc2C1 | inconclusive: 12.6 µM [activator, partial curve] | – |
| COc1ccc2[nH]c(=O)c(CN(Cc3ccc(C)cc3)Cc3nnnn3CC3CCCO3)cc2c1 (stereo unspecified) | inconclusive: 28.2 µM [inhibitor, single point] | – |
| CCc1nnc(NC(=O)CSc2nnc(Cc3ccccc3)n2-c2ccc(OC)cc2)s1 | inconclusive: 0.0141 µM [activator, full curve, poor fit] | – |
| O=C(c1ccc(CS(=O)Cc2ccccc2Cl)o1)N1CCN(c2cccc(Cl)c2)CC1 (stereo unspecified) | inconclusive: 15.8 µM [activator, single point] | – |

| SMILES | Potency | activity change, negative = inhibition |
| --- | --- | --- |
| Cc1oc(C(C)(C)C)cc1C(N)=O | inconclusive: 4.47 µM [activator, partial curve, poor fit] | – |
| CC(Sc1ccccc1)C(=O)Nc1ccccc1C(=O)N1CCOCC1 (stereo unspecified) | inconclusive: 2.82 µM [activator, single point] | – |
| O=C(Nc1ncc2c(n1)CC(c1ccco1)CC2=O)c1ccco1 (stereo unspecified) | inconclusive: 7.08 µM [activator, partial curve] | – |
| O=c1[nH]c(C2CCCN(S(=O)(=O)c3cccc(Cl)c3)C2)nc2c1nnn2Cc1ccc2c(c1)OCCO2 (stereo unspecified) | – | inactive: 12.8% |
| CC(C)NC(=S)n1cc(C(=O)c2cc(Cl)cc(Cl)c2O)cn1 | inconclusive: 22.4 µM [inhibitor, single point] | – |
| Cc1ccnc(NC(=O)c2sc3ccccc3c2Cl)c1 | active: 0.282 µM | – |
| COCCSc1ccccc1C(=O)Nc1cccnc1 | – | inactive: 10.8% |
| Cc1ccc(NC(=S)/C(=C(\[O-])c2ccc(Cl)s2)[n+]2cccc(CO)c2)cc1C | inconclusive: 22.4 µM [inhibitor, single point] | – |
| O=C(c1ccc2c3n(nc2c1)-c1ccc(Cl)cc1CO3)N1CCCCC1 | – | inactive: -11.2% |
| O=C(CN1CCN(c2ccccc2F)CC1)Nc1nnc(C(F)(F)F)s1 | inconclusive: 35.5 µM [inhibitor, single point] | – |
| Cc1cc(C(=O)Oc2cccnc2)ccc1[N+](=O)[O-] | – | inactive: 17% |
| O=C(NC(=S)NCc1ccccc1)C1CCCCC1 | active: 1.58 µM | – |
| CCCCC1=CC2=C(c3ccco3)C(=O)C(C)(OC(=O)c3ccc(OC)cc3)C(=O)C2=CN1CCCCO (stereo unspecified) | inconclusive: 35.5 µM [inhibitor, single point] | – |
| Cc1ccc(-c2nnc(N3CCC(C)CC3)c3ccccc23)cc1C | active: 20 µM | – |
| COc1cc(C(=O)N/N=C(\Cc2ncc[nH]2)c2ccccc2)cc(OC)c1OC | inconclusive: 14.1 µM [inhibitor, partial curve] | – |
| CCCn1c(=S)[nH]c2cc(C(=O)N3CCc4ccccc43)ccc2c1=O | active: 2.82 µM | – |
| CC1CCN(c2nc3ccc(C(=O)N4CCN(Cc5ccc6c(c5)OCO6)CC4)cc3s2)CC1 | inconclusive: 15.8 µM [inhibitor, single point] | – |
| COc1ccccc1OCCCOc1cccc(/C=C2\SC(=O)NC2=O)c1 | inconclusive: 12.6 µM [activator, partial curve] | – |
| COc1cc(CCC(=O)OCC(=O)Nc2c(Cl)cccc2Cl)cc(OC)c1OC | inconclusive: 0.0112 µM [inhibitor, full curve, poor fit] | – |
| O=[N+]([O-])c1cc(Br)c(O)c(/C=N/Nc2nc3ccccc3s2)c1 | – | inactive: -1.64% |
| CC(=O)N1CCc2cc(S(=O)(=O)NCCCOC(C)C)ccc21 | inconclusive: 31.6 µM [activator, single point] | – |
| COc1ccc(-c2noc(-c3ccccc3-c3ccccc3)n2)cc1 | active: 15.8 µM | – |
| COc1cccc(N2CCN(CC(=O)c3c[nH]c4ccc(OC)cc34)CC2C)c1 (stereo unspecified) | – | inactive: 42.5% |
| Nc1nc(N)c(C=Nc2ccc(Br)cc2)c(Nc2ccc(Br)cc2)n1 | inconclusive: 11.2 µM [inhibitor, single point] | – |

Another view of some results above.
O=c1[nH]c(C2CCCN(S(=O)(=O)c3cccc(Cl)c3)C2)nc2c1nnn2Cc1ccc2c(c1)OCCO2 (stereo unspecified)
  activity change, negative = inhibition: inactive: 12.8%
O=C(c1ccc2c3n(nc2c1)-c1ccc(Cl)cc1CO3)N1CCCCC1
  activity change, negative = inhibition: inactive: -11.2%

Remaining list, next part:

| SMILES | Potency | activity change, negative = inhibition |
| --- | --- | --- |
| COc1ccc(CC(=O)NNC(=O)c2ccc(SCc3cc(F)ccc3F)c([N+](=O)[O-])c2)cc1 | inconclusive: 35.5 µM [inhibitor, single point] | – |
| O=C(Nc1nccs1)c1ccc(Cl)c(S(=O)(=O)N2CCCCC2)c1 | active: 10 µM | – |
| Cc1ccc(NC(=O)CSc2nc3c(c(=O)[nH]2)CCC3)c(C)c1 | – | inactive: -10.5% |
| N#Cc1ccc(OCC(=O)Nc2ccccc2NS(=O)(=O)c2cccs2)cc1 | inconclusive: 11.2 µM [activator, partial curve] | – |
| O=C(N/N=C/c1cc(Br)c(Br)o1)c1cccnc1 | inconclusive: 22.4 µM [inhibitor, single point] | – |
| Cc1cnn(Cc2cccnc2)c1N | inconclusive: 3.16 µM [activator, single point] | – |
| C[C@@H]1C=C[C@](Cc2ccccc2)(C(=O)NCCc2c[nH]c3ccccc23)N1C(=O)c1ccccc1 | inconclusive: 35.5 µM [activator, single point] and inconclusive: 15.8 µM [activator, single point] | – |
| COc1cccc2sc(N(CCN(C)C)C(=O)/C=C/c3cccs3)nc12 | inconclusive: 35.5 µM [inhibitor, single point] | – |
| Cc1ccc(NC(=O)CCc2nnc3ccc(N4CCC5(CC4)OCCO5)nn23)nc1 | – | inactive: -10.4% |
| NS(=O)(=O)c1ccc(N/N=C/c2cn(-c3ccccc3)nc2-c2cccs2)cc1 | inconclusive: 22.4 µM [activator, partial curve] | – |
| COc1ccc(/C=C2\SC(=O)N(CCC(=O)N(C)C3CCS(=O)(=O)C3)C2=O)cc1 (stereo unspecified) | inconclusive: 17.8 µM [activator, single point] | – |
| CCCC(=O)Nc1ccc(-c2nc3cc(C)c(C)cc3o2)cc1 | active: 1.26 µM | – |
| Cn1nc(C(=O)NCCc2ccc(Cl)cc2)c2c1-c1ccccc1S(=O)(=O)C2 | inconclusive: 25.1 µM [activator, single point] | – |
| Nc1nonc1C(=O)N/N=C/c1ccc(-c2cccc([N+](=O)[O-])c2)o1 | – | inactive: -17.3% |
| Cc1nc(SCc2cccc(C(=O)O)c2)nc2c1CCCC2 | inconclusive: 15.8 µM [inhibitor, partial curve, poor fit] | – |
| COc1ccc(-c2coc3cc(OC)cc(OC)c3c2=O)cc1 | inconclusive: 15.8 µM [activator, single point] | – |
| Cc1cc(-n2[nH]c(C)c(C)c2=O)nc(-c2ccccc2O)n1 | active: 11.2 µM | – |
| OC(COC(c1ccc(F)cc1)c1ccc(F)cc1)CN1CCCC1 (stereo unspecified) | – | inactive: -46.2% |
| Fc1ccc(NC(=S)Nc2cccc3cnccc23)cc1 | inconclusive: 35.5 µM [inhibitor, single point] | – |
| Nc1nc(CSc2nc3ccccc3s2)nc(N2CCCCC2)n1 | active: 6.31 µM | – |
| COc1ccc(COCC(O)CN(Cc2ccco2)Cc2ccccc2O)cc1 (stereo unspecified) | – | inactive: 9.92% |
| CN1C(=O)NC(NC(=O)C2CCCCC2)(C(F)(F)F)C1=O (stereo unspecified) | – | inactive: 6.58% |
| CCOc1cc(/C=C2/C(=O)ON=C2C)ccc1O | inconclusive: 20 µM [inhibitor, single point] | – |

Reference: PubChem BioAssay AID2551 (National Center for Advancing Translational Sciences (NCATS), 2010)
